Results deposited as PubChem BioAssay AID1259425 (University of Nebraska Medical Center, 2018).
The whole screen tested about 14,000 reagents; below is an unselected part. Reagent sequences are not shown. Not given: the time to read-out.

Aim: 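Compare each knockdown with KSR1 silencing using changes in marker transcripts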 (primary screen)
System: HCT116 human colon cancer cells
Knock-down reagent: siRNA pool against human genes, 50 nM siRNA
Read-out: 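mRNA of six signature genes measured together by branched-DNA assay after 50 nM siRNA pool, blank removed, divided by geometric mean of two housekeeping genes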
Reading the numbers: BNIP3L mRNA: higher = more BNIP3L transcript after knockdown; NDRG1 mRNA: higher = more NDRG1 transcript after knockdown; BNIP3 mRNA: higher = more BNIP3 transcript after knockdown; ALDOC mRNA: higher = more ALDOC transcript after knockdown; ACSL5 mRNA: higher = more ACSL5 transcript after knockdown

| gene | BNIP3L mRNA, set 1 | NDRG1 mRNA, set 1 | BNIP3 mRNA, set 1 | ALDOC mRNA, set 1 | ACSL5 mRNA, set 1 |
| --- | --- | --- | --- | --- | --- |
| HDHD5 (haloacid dehalogenase like hydrolase domain containing 5) | 0.106 | 0.285 | 0.196 | 0.0192 | 0.232 |
| SLC5A7 | 0.151 | 0.143 | 0.505 | 0.0322 | 0.353 |
| IGSF9 (immunoglobulin superfamily member 9) | 0.178 | 0.173 | 0.317 | 0.0143 | 0.138 |
| HPD (4-hydroxyphenylpyruvate dioxygenase) | 0.138 | 0.369 | 0.167 | 0.00715 | 0.209 |
| PRPF31 (pre-mRNA processing factor 31) | 0.159 | 0.105 | 0.425 | 0.0368 | 0.124 |
| NRTN (neurturin) | 0.0734 | 0.211 | 0.272 | 0.0146 | 0.0844 |
| TP53AIP1 (tumor protein p53 regulated apoptosis inducing protein 1) | 0.183 | 0.104 | 0.274 | 0.0279 | 0.0534 |
| TENM4 (teneurin transmembrane protein 4) | 0.0843 | 0.208 | 0.462 | 0.0437 | 0.123 |
| WRAP73 (WD repeat containing, antisense to TP73) | 0.217 | 0.529 | 0.214 | 0.174 | 0.179 |
| RAP1B (RAP1B, member of RAS oncogene family) | 0.13 | 0.245 | 0.354 | 0.0104 | 0.236 |
| ZNF665 (zinc finger protein 665) | 0.0889 | 0.234 | 0.273 | 0.0219 | 0.128 |
| FAM20A (FAM20A golgi associated secretory pathway pseudokinase) | 0.0825 | 0.34 | 0.259 | 0.0292 | 0.0825 |
| IRF3 (interferon regulatory factor 3) | 0.137 | 0.093 | 0.242 | 0.0083 | 0.177 |
| NABP2 (nucleic acid binding protein 2) | 0.0824 | 0.199 | 0.25 | 0.0168 | 0.407 |
| MARCHF4 (membrane associated ring-CH-type finger 4) | 0.14 | 0.317 | 0.37 | 0.0355 | 0.141 |
| DDX52 (DExD-box helicase 52) | 0.0502 | 0.125 | 0.229 | 0.017 | 0.102 |
| BLTP1 (bridge-like lipid transfer protein family member 1) | 0.144 | 0.35 | 0.222 | 0.0567 | 0.456 |
| RBM11 (RNA binding motif protein 11) | 0.242 | 0.0737 | 0.352 | 0.0371 | 0.331 |
| SLC35C1 | 0.141 | 0.131 | 0.303 | 0.00568 | 0.0811 |
| PARP11 (poly(ADP-ribose) polymerase family member 11) | 0.0597 | 0.324 | 0.18 | 0.0287 | 0.247 |
| FILIP1L (filamin A interacting protein 1 like) | 0.106 | 0.126 | 0.253 | 0.0248 | 0.246 |
| CEPT1 (choline/ethanolamine phosphotransferase 1) | 0.084 | 0.0759 | 0.231 | 0.0403 | 0.148 |
| SH2D3A (SH2 domain containing 3A) | 0.16 | 0.29 | 0.264 | 0.0598 | 0.153 |
| ELSPBP1 (epididymal sperm binding protein 1) | 0.131 | 0.136 | 0.251 | 0.0618 | 0.115 |
| H3C12 (H3 clustered histone 12) | 0.0768 | 0.489 | 0.183 | 0.0265 | 0.099 |
| GABRA1 (gamma-aminobutyric acid type A receptor subunit alpha1) | 0.122 | 0.159 | 0.375 | 0.028 | 0.136 |
| KCNQ1 (potassium voltage-gated channel subfamily Q member 1) | 0.1 | 0.268 | 0.347 | 0.0157 | 0.136 |
| NT5DC3 (5'-nucleotidase domain containing 3) | 0.0658 | 0.0844 | 0.191 | 0.00479 | 0.162 |
| PSMC4 (proteasome 26S subunit, ATPase 4) | 0.137 | 1.61 | 0.39 | 0.0345 | 0.117 |
| ITGB6 (integrin subunit beta 6) | 0.141 | 0.158 | 0.236 | 0.0196 | 0.144 |
| MT-ND4 (mitochondrially encoded NADH dehydrogenase 4) | 0.0347 | 0.412 | 0.44 | 0.00755 | 0.142 |
| KRTAP17-1 (keratin associated protein 17-1) | 0.346 | 0.552 | 0.3 | 0.0934 | 0.685 |
| TNN (tenascin N) | 0.0984 | 0.104 | 0.127 | 0.0359 | 0.0982 |
| TFPI (tissue factor pathway inhibitor) | 0.0407 | 0.0954 | 0.147 | 0.0154 | 0.132 |
| OR1G1 (olfactory receptor family 1 subfamily G member 1) | 0.126 | 0.485 | 0.401 | 0.0264 | 0.129 |
| CHRNA7 (cholinergic receptor nicotinic alpha 7 subunit) | 0.29 | 0.396 | 0.847 | 0.0269 | 0.295 |
| EPHB3 (EPH receptor B3) | 0.202 | 0.311 | 0.518 | 0.0544 | 0.414 |
| ELAVL4 (ELAV like RNA binding protein 4) | 0.178 | 0.582 | 0.336 | 0.0555 | 0.0662 |
| YY1 (YY1 transcription factor) | 0.178 | 0.178 | 0.625 | 0.0158 | 0.28 |
| SARDH (sarcosine dehydrogenase) | 0.127 | 0.195 | 0.25 | 0.0231 | 0.217 |
| PAFAH1B3 | 0.0794 | 0.33 | 0.249 | 0.0214 | 0.186 |
| KIR3DL2 | 0.0787 | 0.0908 | 0.32 | 0.0168 | 0.113 |
| PROKR1 (prokineticin receptor 1) | 0.242 | 0.148 | 0.382 | 0.0163 | 0.292 |
| MAP1S (microtubule associated protein 1S) | 0.145 | 0.512 | 0.231 | 0.0524 | 0.0768 |
| TMEM108 (transmembrane protein 108) | 0.226 | 0.302 | 0.412 | 0.024 | 0.307 |
| PRR34 (PRR34 long non-coding RNA) | 0.0267 | 0.293 | 0.197 | 0.00391 | 0.21 |
| LINC00574 (long independently transcribed non-coding RNA 574) | 0.14 | 0.265 | 0.382 | 0.0205 | 0.285 |
| H2BC5 (H2B clustered histone 5) | 0.11 | 0.25 | 0.417 | 0.0117 | 0.17 |
| KCNJ14 (potassium inwardly rectifying channel subfamily J member 14) | 0.103 | 0.162 | 0.303 | 0.0358 | 0.036 |
| DGCR8 (DGCR8 microprocessor complex subunit) | 0.132 | 0.224 | 0.372 | 0.052 | 0.197 |

Records listed so far whose gene name starts with R or r (2):
| gene | BNIP3L mRNA, set 1 | NDRG1 mRNA, set 1 | BNIP3 mRNA, set 1 | ALDOC mRNA, set 1 | ACSL5 mRNA, set 1 |
| --- | --- | --- | --- | --- | --- |
| RAP1B (RAP1B, member of RAS oncogene family) | 0.13 | 0.245 | 0.354 | 0.0104 | 0.236 |
| RBM11 (RNA binding motif protein 11) | 0.242 | 0.0737 | 0.352 | 0.0371 | 0.331 |
